In article PMC6675906:
These are yes or no findings as the source states them, for the method shown. Binding seen in cells or lysates may run through a third protein. Where a sequence is shown, tags or fusion partners need not be part of it. Blank lines part the entries; values can stand above or below the binder they belong to.

By UniProt entry, the sequences of proteins in these tests, tags left out.
UniProt P68871: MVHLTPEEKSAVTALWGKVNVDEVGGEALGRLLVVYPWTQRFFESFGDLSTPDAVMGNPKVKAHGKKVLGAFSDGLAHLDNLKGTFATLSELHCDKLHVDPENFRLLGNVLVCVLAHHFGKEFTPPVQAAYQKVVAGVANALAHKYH

Biological target: human hemoglobin subunit beta (3×Flag-hHB) (human) (UniProt P68871)
Assay: co-IP; HEK293T cells cotransfected with p3×Flag-hHB and pMyc-RIG-I or pMyc-MDA5, 48 h; lysed in NP-40 buffer with 1 mM PMSF at 4°C; precleared with protein G-agarose; IP with anti-Flag M2 affinity gel or protein G-agarose with anti-Myc MAb overnight at 4°C; Western blot

binding: no binding
B1: melanoma differentiation-associated gene 5 (Myc-MDA5) (protein, UniProt Q9BYX4 1-1025)
chain: MSNGYSTDENFRYLISCFRARVKMYIQVEPVLDYLTFLPAEVKEQIQRTVATSGNMQAVELLLSTLEKGVWHLGWTREFVEALRRTGSPLAARYMNPELTDLPSPSFENAHDEYLQLLNLLQPTLVDKLLVRDVLDKCMEEELLTIEDRNRIAAAENNGNESGVRELLKRIVQKENWFSAFLNVLRQTGNNELVQELTGSDCSESNAEIENLSQVDGPQVEEQLLSTTVQPNLEKEVWGMENNSSESSFADSSVVSESDTSLAEGSVSCLDESLGHNSNMGSDSGTMGSDSDEENVAARASPEPELQLRPYQMEVAQPALEGKNIIICLPTGSGKTRVAVYIAKDHLDKKKKASEPGKVIVLVNKVLLVEQLFRKEFQPFLKKWYRVIGLSGDTQLKISFPEVVKSCDIIISTAQILENSLLNLENGEDAGVQLSDFSLIIIDECHHTNKEAVYNNIMRHYLMQKLKNNRLKKENKPVIPLPQILGLTASPGVGGATKQAKAEEHILKLCANLDAFTIKTVKENLDQLKNQIQEPCKKFAIADATREDPFKEKLLEIMTRIQTYCQMSPMSDFGTQPYEQWAIQMEKKAAKEGNRKERVCAEHLRKYNEALQINDTIRMIDAYTHLETFYNEEKDKKFAVIEDDSDEGGDDEYCDGDEDEDDLKKPLKLDETDRFLMTLFFENNKMLKRLAENPEYENEKLTKLRNTIMEQYTRTEESARGIIFTKTRQSAYALSQWITENEKFAEVGVKAHHLIGAGHSSEFKPMTQNEQKEVISKFRTGKINLLIATTVAEEGLDIKECNIVIRYGLVTNEIAMVQARGRARADESTYVLVAHSGSGVIEHETVNDFREKMMYKAIHCVQNMKPEEYAHKILELQMQSIMEKKMKTKRNIAKHYKNNPSLITFLCKNCSVLACSGEDIHVIEKMHHVNMTPEFKELYIVRENKALQKKCADYQINGEIICKCGQAWGTMMVHKGLDLPCLKIRNFVVVFKNNSTKKQYKKWVELPITFPNLDYSECCLFSDED

binding: no binding
B2: retinoic acid-inducible gene I (Myc-RIG-I) (protein, UniProt O95786 1-925)
chain: MTTEQRRSLQAFQDYIRKTLDPTYILSYMAPWFREEEVQYIQAEKNNKGPMEAATLFLKFLLELQEEGWFRGFLDALDHAGYSGLYEAIESWDFKKIEKLEEYRLLLKRLQPEFKTRIIPTDIISDLSECLINQECEEILQICSTKGMMAGAEKLVECLLRSDKENWPKTLKLALEKERNKFSELWIVEKGIKDVETEDLEDKMETSDIQIFYQEDPECQNLSENSCPPSEVSDTNLYSPFKPRNYQLELALPAMKGKNTIICAPTGCGKTFVSLLICEHHLKKFPQGQKGKVVFFANQIPVYEQQKSVFSKYFERHGYRVTGISGATAENVPVEQIVENNDIIILTPQILVNNLKKGTIPSLSIFTLMIFDECHNTSKQHPYNMIMFNYLDQKLGGSSGPLPQVIGLTASVGVGDAKNTDEALDYICKLCASLDASVIATVKHNLEELEQVVYKPQKFFRKVESRISDKFKYIIAQLMRDTESLAKRICKDLENLSQIQNREFGTQKYEQWIVTVQKACMVFQMPDKDEESRICKALFLYTSHLRKYNDALIISEHARMKDALDYLKDFFSNVRAAGFDEIEQDLTQRFEEKLQELESVSRDPSNENPKLEDLCFILQEEYHLNPETITILFVKTRALVDALKNWIEGNPKLSFLKPGILTGRGKTNQNTGMTLPAQKCILDAFKASGDHNILIATSVADEGIDIAQCNLVILYEYVGNVIKMIQTRGRGRARGSKCFLLTSNAGVIEKEQINMYKEKMMNDSILRLQTWDEAVFREKILHIQTHEKFIRDSQEKPKPVPDKENKKLLCRKCKALACYTADVRVIEECHYTVLGDAFKECFVSRPHPKPKQFSSFEKRAKIFCARQNCSHDWGIHVKYKTFEIPVIKIESFVVEDIATGVQTLYSKWKDFHFEKIPFDPAEMSK
